# The list does not hold the whole screen: it gathers tests that were run many times, whatever their T/C, doses with no T/C, and many T/C values between a quarter and a half above the control. Further doses and runs are listed elsewhere. T/C is the treated group as % of the vehicle group. Some doses have a count of surviving animals in place of a T/C: the source files T/C as zero there, which appears to mark a toxic dose or a test without result, not a measured value. Some survivor counts are full or nearly so, which does not show that the dose was tolerated: survival well below the control is almost never listed, so the zero probably covers shortened survival too. Survivors were counted at the toxicity check, usually on the fifth day, unless a day is given; later deaths do not show. Schedules are NCI's codes, taken here to give the interval after Q, in days (D) or hours (H), and the number of doses after X. Some entries were tested several times; the results are listed from low to high. For survival time, the PubChem record calls one and a half times the control and up active, and a quarter to a half above the control has no call in these data; cut-offs in other NCI protocols can differ. Signs of the kind (2×) stand for listed records that agree. Some T/C values are followed by the survivors on the day toxicity was checked, most often the fifth; without a count, all were alive then.
# Tested on: BDF1 mice, P388 leukemia ip, median survival T/C
# Experiment: NCI In Vivo Anticancer Drug Screen. Data for tumor model P388 Leukemia (intraperitoneal) in B6D2F1 (BDF1) mice
# Conditions: T/C endpoint: median survival time, higher T/C = longer survival
# Method in brief: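 T/C = treated-group survival ÷ vehicle-control survival; tumour transplanted into mice before dosing.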
# [1] = dose: 1.25 mg/kg/injection, schedule: Q01DX010 (ip), vehicle: saline
# [2] = dose: 2.5 mg/kg/injection, schedule: Q01DX010 (ip), vehicle: saline
# [3] = dose: 22.5 mg/kg/injection, schedule: Q01DX010 (ip), vehicle: saline
# [4] = dose: 25.0 mg/kg/injection, schedule: Q01DX009 (ip), vehicle: Klucel (hydroxypropylcellulose) (HPC)
# [5] = dose: 45.0 mg/kg/injection, schedule: Q01DX010 (ip), vehicle: saline
smiles,measurement,setting,value
O=P1(N(CCCl)CCCl)NCCCO1 (stereo not given),T/C,[1],"90 (2×), 91, 92 (2×), 96, 100 (8×), 109 (2×), 110 (5×), 111, 112, 115 (2×), 115 [5 of 6 alive], 116, 118, 120 (3×), 122, 127, 133 (2×), 134 [5 of 6 alive], 136, 145 % of control"
same,survivor count,[1],4 of 6 and 6 of 6
same,T/C,[2],"90, 92, 100 (6×), 104, 108 (2×), 109 (2×), 111, 113, 116 (2×), 118 (4×), 120 (3×), 122, 125, 125 [5 of 6 alive], 130 [5 of 6 alive], 133 (2×), 135, 136, 138, 140, 141, 146, 150, 153, 154, 160 % of control"
same,survivor count,[2],4 of 4 and 6 of 6
same,T/C,"dose: 5.0 mg/kg/injection, schedule: Q01DX010 (ip), vehicle: saline","125, 137 [5 of 6 alive], 138, 150, 153 [5 of 6 alive], 185, 188, 190 % of control"
same,T/C,"dose: 5.0 mg/kg/injection, schedule: Q01DX010 (ip), vehicle: water",140 % of control
same,T/C,"dose: 5.6 mg/kg/injection, schedule: Q01DX010 (ip), vehicle: saline","127, 136, 140, 144, 231 % of control"
same,T/C,"dose: 10.0 mg/kg/injection, schedule: Q01DX010 (ip), vehicle: saline","153, 176, 177, 180 (2×), 195, 200, 203, 205, 250, 270 % of control"
same,T/C,"dose: 11.2 mg/kg/injection, schedule: Q01DX010 (ip), vehicle: saline","126, 150, 213, 233 % of control"
same,T/C,[3],"177, 181, 254, 316 % of control"
same,survivor count,[3],5 of 6
same,T/C,"dose: 25.0 mg/kg/injection, schedule: Q01DX001 (ip), vehicle: saline",135 % of control
same,T/C,"dose: 25.0 mg/kg/injection, schedule: Q01DX005 (ip), vehicle: Klucel (hydroxypropylcellulose) (HPC), evaluated on day 30","90, 123, 126, 128, 162, 172, 173, 174, 175 (3×), 188, 195, 199, 202, 204 (2×), 210, 215, 219, 221 (2×), 224, 225, 227 (2×), 228, 231 (2×), 235, 241, 247, 254, 262 % of control"
same,T/C,"dose: 25.0 mg/kg/injection, schedule: Q01DX005 (ip), vehicle: Klucel (hydroxypropylcellulose) (HPC), evaluated on day 35",221 % of control
same,T/C,[4],"115, 125, 139, 140, 141, 144, 145, 165, 184, 188, 193 [2 of 2 alive], 203, 205, 209, 214, 215, 216 (2×), 223 (2×), 241, 250, 255, 256, 263, 264, 265, 270, 272, 288 (2×), 294 (2×), 300 % of control"
same,survivor count,[4],2 of 3
same,T/C,"dose: 25.0 mg/kg/injection, schedule: Q08DX002 (ip), vehicle: saline",128 % of control
same,T/C,"dose: 30.0 mg/kg/injection, schedule: Q01DX010 (ip), vehicle: water","140, 240, 272 (2×), 300 % of control (2×)"
same,T/C,"dose: 37.5 mg/kg/injection, schedule: Q01DX001 (ip), vehicle: saline",149 % of control
same,T/C,"dose: 40.0 mg/kg/injection, schedule: Q01DX005 (ip), vehicle: saline, evaluated on day 30","100, 130, 283 % of control"
same,T/C,"dose: 40.0 mg/kg/injection, schedule: Q01DX005 (ip), vehicle: saline, evaluated on day 35",343 % of control (2×)
same,T/C,"dose: 40.0 mg/kg/injection, schedule: Q01DX005 (ip), vehicle: saline, evaluated on day 40",396 % of control
same,T/C,"dose: 40.0 mg/kg/injection, schedule: Q01DX009 (ip), vehicle: saline, evaluated on day 30","130, 160, 283 % of control"
same,T/C,"dose: 40.0 mg/kg/injection, schedule: Q01DX009 (ip), vehicle: saline, evaluated on day 35",343 % of control (2×)
same,T/C,"dose: 40.0 mg/kg/injection, schedule: Q01DX009 (ip), vehicle: saline, evaluated on day 40",161 % of control
same,T/C,"dose: 44.0 mg/kg/injection, schedule: Q04DX003 (ip), vehicle: saline, evaluated on day 5","107, 114, 141, 208, 217, 235 % of control"
same,T/C,"dose: 44.0 mg/kg/injection, schedule: Q04DX003 (ip), vehicle: saline, evaluated on day 60","107, 114, 141, 208, 217, 235 % of control"
same,T/C,[5],"118, 155, 190, 194 % of control"
same,survivor count,[5],2 of 6
same,T/C,"dose: 45.0 mg/kg/injection, schedule: Q01DX010 (ip), vehicle: water","140, 181, 185, 204, 295, 300 % of control"
same,T/C,"dose: 50.0 mg/kg/injection, schedule: Q01DX001 (ip), vehicle: Klucel (hydroxypropylcellulose) (HPC), evaluated on day 30","98, 137, 151, 157, 163, 165, 173, 174, 175, 176, 177 (2×), 180, 182, 184, 186, 187 (2×), 188, 189, 191, 197 (2×), 204, 207, 208, 209, 213, 238 % of control"
same,T/C,"dose: 50.0 mg/kg/injection, schedule: Q01DX001 (ip), vehicle: Klucel (hydroxypropylcellulose) (HPC), evaluated on day 35",148 and 177 % of control
same,survivor count,"dose: 50.0 mg/kg/injection, schedule: Q01DX001 (ip), vehicle: Klucel (hydroxypropylcellulose) (HPC)",3 of 3
same,T/C,"dose: 50.0 mg/kg/injection, schedule: Q01DX001 (ip), vehicle: saline",126 % of control
same,T/C,"dose: 50.0 mg/kg/injection, schedule: Q01DX005 (ip), vehicle: Klucel (hydroxypropylcellulose) (HPC), evaluated on day 30","108, 122, 137, 140, 147, 204, 221, 222, 224, 226, 230, 235, 236, 238, 241 (2×), 243 (2×), 245 (2×), 250, 252, 256, 260, 262, 267 (2×), 270, 272, 272 [5 of 6 alive], 275, 277, 280 % of control"

# From PubChem BioAssay AID328 (DTP/NCI, 2004)
